Source: article PMC6094050, “O-GlcNAcylation Signal Mediates Proteasome Inhibitor Resistance in Cancer Cells by Stabilizing NRF1” (Molecular and Cellular Biology, 2018)

Molecular target: T1, 3×FLAG-mNRF1 ΔbZip (1–592) (mouse) (UniProt Q61985)
T1 sequence: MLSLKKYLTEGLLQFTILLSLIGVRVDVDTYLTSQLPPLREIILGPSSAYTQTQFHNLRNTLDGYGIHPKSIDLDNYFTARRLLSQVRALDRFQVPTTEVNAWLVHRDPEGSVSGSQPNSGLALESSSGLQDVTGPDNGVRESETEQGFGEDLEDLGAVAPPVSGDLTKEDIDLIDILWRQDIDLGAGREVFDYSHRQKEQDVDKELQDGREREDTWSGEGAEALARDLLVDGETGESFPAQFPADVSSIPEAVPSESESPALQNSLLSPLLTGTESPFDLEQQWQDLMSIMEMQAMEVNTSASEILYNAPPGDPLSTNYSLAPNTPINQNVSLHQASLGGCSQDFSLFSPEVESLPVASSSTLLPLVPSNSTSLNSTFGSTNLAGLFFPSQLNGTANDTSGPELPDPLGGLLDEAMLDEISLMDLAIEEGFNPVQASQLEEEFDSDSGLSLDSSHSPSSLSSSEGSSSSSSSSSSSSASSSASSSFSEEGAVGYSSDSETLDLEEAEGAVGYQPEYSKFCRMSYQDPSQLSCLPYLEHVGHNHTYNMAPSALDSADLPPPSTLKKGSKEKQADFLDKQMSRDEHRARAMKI
Assay: co-IP; soluble nuclear extracts of 293F cells that stably express FLAG-tagged NRF1 or its deletion mutants, precipitated with anti-FLAG antibody; immunoblot for OGT, HCF-1 and FLAG

Substance: host cell factor C1 (HCF-1), endogenous (human (endogenous in 293F and 293T))
- binding: binds

No constants are given. Whether binding was seen depends on the method and setting. Binding seen in cells or lysates may run through a third protein. A result given as binding can be weak or reduced; the word gives no strength. Sequences can lack the tags named with a protein.
